Test results reported in patent publication US20040229274A1 (Johns Hopkins, published 2004).
No constants are given. Whether binding was seen depends on the method and setting. For some of these results: In cells and extracts the contact can be indirect. Some binding calls cover weakened binding; strength is not graded here. For some of these results: Tags and fused reporters may be left off the sequences shown.

Chains of the proteins cited; added tags and fusions are not shown. Lines headed by an entry give the natural chain unless they say otherwise; changes in a name come on top. A line that says so, or that is headed by a name, gives the form on record, which may keep a tag or linker. Residues count along the entry.
UniProt P23385, residues 19-1199: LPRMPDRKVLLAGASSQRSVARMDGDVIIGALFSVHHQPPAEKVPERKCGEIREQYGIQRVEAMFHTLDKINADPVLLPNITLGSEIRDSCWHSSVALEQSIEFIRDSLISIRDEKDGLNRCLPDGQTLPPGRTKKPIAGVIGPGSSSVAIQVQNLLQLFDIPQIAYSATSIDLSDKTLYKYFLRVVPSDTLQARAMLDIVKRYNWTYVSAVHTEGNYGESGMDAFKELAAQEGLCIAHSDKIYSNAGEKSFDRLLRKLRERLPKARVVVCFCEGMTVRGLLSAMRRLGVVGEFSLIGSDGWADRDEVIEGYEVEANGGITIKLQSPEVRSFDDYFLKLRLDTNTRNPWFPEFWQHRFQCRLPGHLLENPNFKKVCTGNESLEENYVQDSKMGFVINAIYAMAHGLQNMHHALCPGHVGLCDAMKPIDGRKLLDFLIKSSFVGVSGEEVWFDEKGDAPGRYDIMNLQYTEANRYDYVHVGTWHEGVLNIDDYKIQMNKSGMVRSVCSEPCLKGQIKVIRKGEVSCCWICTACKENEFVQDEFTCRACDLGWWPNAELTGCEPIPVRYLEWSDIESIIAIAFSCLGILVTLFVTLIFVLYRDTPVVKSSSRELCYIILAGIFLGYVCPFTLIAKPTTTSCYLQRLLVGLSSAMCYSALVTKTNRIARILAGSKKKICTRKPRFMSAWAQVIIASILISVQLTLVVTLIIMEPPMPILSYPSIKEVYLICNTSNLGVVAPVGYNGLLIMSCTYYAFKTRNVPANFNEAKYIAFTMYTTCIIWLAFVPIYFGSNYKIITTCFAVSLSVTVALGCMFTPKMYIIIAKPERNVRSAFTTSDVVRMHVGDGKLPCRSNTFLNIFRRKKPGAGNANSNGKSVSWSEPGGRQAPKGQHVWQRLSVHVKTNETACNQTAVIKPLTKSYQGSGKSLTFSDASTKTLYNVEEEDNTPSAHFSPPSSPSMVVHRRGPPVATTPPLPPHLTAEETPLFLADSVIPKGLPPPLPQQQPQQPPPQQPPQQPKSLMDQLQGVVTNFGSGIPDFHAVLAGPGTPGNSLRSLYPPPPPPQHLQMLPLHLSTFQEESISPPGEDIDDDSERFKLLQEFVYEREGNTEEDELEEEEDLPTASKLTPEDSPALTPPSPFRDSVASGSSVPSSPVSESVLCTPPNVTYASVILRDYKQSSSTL
UniProt P31424: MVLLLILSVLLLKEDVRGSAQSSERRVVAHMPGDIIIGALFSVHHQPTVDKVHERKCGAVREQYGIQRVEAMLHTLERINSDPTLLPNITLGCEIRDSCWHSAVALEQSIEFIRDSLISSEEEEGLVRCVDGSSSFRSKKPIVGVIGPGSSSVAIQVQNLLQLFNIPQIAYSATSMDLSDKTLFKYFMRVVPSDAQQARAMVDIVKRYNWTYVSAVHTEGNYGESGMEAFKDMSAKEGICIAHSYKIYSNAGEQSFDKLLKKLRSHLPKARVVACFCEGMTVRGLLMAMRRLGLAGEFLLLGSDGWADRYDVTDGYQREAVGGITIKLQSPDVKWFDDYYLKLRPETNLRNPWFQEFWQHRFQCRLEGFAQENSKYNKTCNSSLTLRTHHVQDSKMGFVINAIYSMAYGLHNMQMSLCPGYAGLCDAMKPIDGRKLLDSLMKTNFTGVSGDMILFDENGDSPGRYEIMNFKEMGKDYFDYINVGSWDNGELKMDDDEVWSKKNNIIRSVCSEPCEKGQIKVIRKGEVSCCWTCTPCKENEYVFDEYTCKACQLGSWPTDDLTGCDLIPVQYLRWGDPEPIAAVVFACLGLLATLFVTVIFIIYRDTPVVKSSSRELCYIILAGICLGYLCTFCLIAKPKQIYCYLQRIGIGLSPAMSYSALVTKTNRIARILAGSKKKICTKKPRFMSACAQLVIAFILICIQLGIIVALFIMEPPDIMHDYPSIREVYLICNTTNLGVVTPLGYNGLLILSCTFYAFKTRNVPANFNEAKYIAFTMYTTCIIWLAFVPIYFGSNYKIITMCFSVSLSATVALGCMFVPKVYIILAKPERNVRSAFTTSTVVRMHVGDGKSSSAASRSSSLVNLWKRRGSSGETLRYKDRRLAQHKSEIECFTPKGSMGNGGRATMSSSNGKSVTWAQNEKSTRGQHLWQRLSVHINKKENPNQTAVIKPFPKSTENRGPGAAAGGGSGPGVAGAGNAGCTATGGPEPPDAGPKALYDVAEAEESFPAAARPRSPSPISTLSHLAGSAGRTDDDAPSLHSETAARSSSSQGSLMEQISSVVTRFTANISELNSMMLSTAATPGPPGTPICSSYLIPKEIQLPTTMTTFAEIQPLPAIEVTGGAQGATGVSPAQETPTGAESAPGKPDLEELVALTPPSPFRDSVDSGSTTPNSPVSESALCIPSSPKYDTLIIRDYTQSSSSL
native mGluR5 in detergent extracts of rat hippocampus: residues 21-1203 of P31424
myc-tagged mGluR5 C-terminus (195 aa) expressed in HEK-293 cells: residues 1009-1203 of P31424

How the values were obtained:
[1] = molecular target: full length mGluR1a transiently expressed in HEK-293 cells (UniProt P23385); experiment: in vitro binding to GST-Homer, immunoblot
[2] = molecular target: full length mGluR5 transiently expressed in HEK-293 cells (UniProt P31424); experiment: in vitro binding to GST-Homer, immunoblot
[3] = molecular target: native mGluR5 in detergent extracts of rat hippocampus (rat) (UniProt P31424); experiment: GST-Homer Affigel column loaded with hippocampal extract, immunoblot
[4] = molecular target: full length mGluR1a transiently expressed in HEK-293 cells (UniProt P23385); experiment: bead-linked GST-Homer pull-down from HEK-293 cell extracts, immunoblot
[5] = molecular target: full length mGluR5 transiently expressed in HEK-293 cells (UniProt P31424); experiment: as above
[6] = molecular target: native mGluR5 in detergent extracts of rat hippocampus (rat) (UniProt P31424); experiment: GST-Homer affinity column loaded with hippocampal extract, immunoblot for mGluR5
[7] = molecular target: native mGluR5 in detergent extracts of rat hippocampus (rat) (UniProt P31424); experiment: GST-Homer affinity column loaded with detergent extract of hippocampus, immunoblot
[8] = molecular target: myc-tagged mGluR5 C-terminus (195 aa) expressed in HEK-293 cells (UniProt P31424); experiment: GST-Homer constructs, pull-down of myc-tagged mGluR5 C-terminus from HEK-293 extracts, immunoblot for myc
[9] = molecular target: native mGluR5 in detergent extracts of rat hippocampus (rat) (UniProt P31424); experiment: co-immunoprecipitation from hippocampal lysate with anti-Homer serum, immunoblot for mGluR5
[10] = molecular target: native mGluR5 in detergent extracts of rat hippocampus (rat) (UniProt P31424); experiment: co-immunoprecipitation from hippocampal lysate with anti-Homer antiserum, immunoblot for mGluR5

Measured: binding

B1: GST-Homer fusion protein (full length rat Homer, 1-186, fused to glutathione-S-transferase) (other)
chain: MGEQPIFSTRAHVFQIDPNTKKNWVPTSKHAVTVSYFYDSTRNVYRIISLDGSKAIINSTITPNMTFTKTSQKFGQWADSRANTVYGLGFSSEHHLSKFAEKFQEFKEAARLAKEKSQEKMELTSTPSQESAGGDLQSPLTPESINGTDDERTPDVTQNSEPRAEPAQNALPFSHRYTFNSAIMIK
notes: Bacterially expressed from pGEX; GST is put first as usual for pGEX; also called Homer GST fusion protein; Homer-GST fusion protein; not shown: glutathione-S-transferase (GST) encoded by the bacterial vector pGEX (Pharmacia)
not listed: [9] | [10]
binds: all other assays above

B2: native Homer protein in rat hippocampus (protein)
chain: MGEQPIFSTRAHVFQIDPNTKKNWVPTSKHAVTVSYFYDSTRNVYRIISLDGSKAIINSTITPNMTFTKTSQKFGQWADSRANTVYGLGFSSEHHLSKFAEKFQEFKEAARLAKEKSQEKMELTSTPSQESAGGDLQSPLTPESINGTDDERTPDVTQNSEPRAEPAQNALPFSHRYTFNSAIMIK
binds: [9] | [10]
